# Counter-ions that a name gives are not always drawn. The list shows a part of the results. Single values are uncertain, as repeats are few or missing.
# System: hsa-miR-132-3p
# Assay: miR-132-3p level in NGN2-iNs after compound treatment (TMM-normalised, ComBat batch-corrected) (batch-corrected normalised expression (arbitrary units)); higher = higher miR-132-3p expression
# Conditions: 10 µM; 24 h; human iPSC-derived NGN2 neurons (BR43)
row,SMILES,miR-132-3p level in NGN2-iNs
1,c1ccc2c(Oc3nc(Nc4ccc(N5CCOCC5)cc4)c4ncn(C5CCCCC5)c4n3)cccc2c1 [Purmorphamine],-0.375
2,CC1(C)[C@@H](O[C@H]2O[C@H](C(=O)O)[C@@H](O)[C@H](O)[C@H]2O[C@@H]2O[C@H](C(=O)O)[C@@H](O)[C@H](O)[C@H]2O)CC[C@]2(C)[C@H]3C(=O)C=C4[C@@H]5C[C@@](C)(C(=O)O)CC[C@]5(C)CC[C@@]4(C)[C@]3(C)CC[C@@H]12 [Ammonium Glycyrrhizinate],0.888
3,COc1cc2nccc(Oc3ccc(NC(=O)Nc4ccc(F)cc4F)c(F)c3)c2cc1OC,0.344
4,CNC(=C[N+](=O)[O-])NCCSCc1csc(CN(C)C)n1 [Nizatidine],-0.29
5,CC(C)CN(C[C@@H](O)[C@H](Cc1ccccc1)NC(=O)O[C@H]1CCOC1)S(=O)(=O)c1ccc(N)cc1 [Amprenavir],-0.0102
6,CS(=O)(=O)Nc1ccc([N+](=O)[O-])cc1Oc1ccccc1 [Nimesulide],0.188
7,CO[C@H]1C[C@@H]2CC[C@@H](C)[C@@](O)(O2)C(=O)C(=O)N2CCCC[C@H]2C(=O)O[C@H]([C@H](C)C[C@@H]2CC[C@@H](O)[C@H](OC)C2)CC(=O)[C@H](C)/C=C(\C)[C@@H](O)[C@@H](OC)C(=O)[C@H](C)C[C@H](C)/C=C/C=C/C=C/1C [Rapamycin (Sirolimus)],0.21
8,Cc1ccc(C(=O)NCCCCCC(=O)Nc2ccccc2N)cc1,-0.515
9,N#Cc1ccc2[nH]c(O)c(-c3ccc(CN4CCOCC4)cn3)c2c1,-0.239
10,COc1cc2ncnc(Nc3ccc(Cl)cc3F)c2cc1OC,-0.385
11,O=C(O)P(=O)(O)O [Foscarnet Sodium],-0.222
12,Cc1[nH]c(/C=C2\C(=O)Nc3ccccc32)c(C)c1CCC(=O)O [Orantinib (SU6668)],0.524
13,CN(CCOc1ccc(NS(C)(=O)=O)cc1)CCc1ccc(NS(C)(=O)=O)cc1 [Dofetilide],-0.476
14,CC(C)NCC(O)c1ccc(NS(C)(=O)=O)cc1 (configuration not stated) [Sotalol HCl],-0.358
15,COc1cc(C=O)ccc1O [Vanillin],-0.919
16,CSc1cccc(Nc2ncc3cc(-c4c(Cl)cccc4Cl)c(=O)n(C)c3n2)c1,1.31
17,OCc1ccc(-c2ccc(-c3ccc(CO)s3)o2)s1,0.435
18,O=c1c(-c2ccc(O)cc2)coc2cc(O)cc(O)c12 [Genistein],0.351
19,Cc1cc(N2CCOCC2)ccc1Nc1nc(NC2CCCCC2)c2[nH]cnc2n1,-0.347
20,O=C(O)c1ccc(Nc2ncc3c(n2)-c2ccc(Cl)cc2C(c2c(F)cccc2F)=NC3)cc1,-0.278
21,COc1cc2c(cc1OC)-c1cc3ccc(OC)c(OC)c3c[n+]1CC2 [Palmatine chloride],-0.987
22,CNC(=C[N+](=O)[O-])NCCSCc1ccc(CN(C)C)o1 [Ranitidine Hydrochloride],-0.835
23,N#C[C@@H]1CCCN1C(=O)CNC12CC3CC(CC(O)(C3)C1)C2 [Vildagliptin (LAF-237)],1.33
24,CC(C)C[C@H](NC(=O)CNC(=O)c1cc(Cl)ccc1Cl)B(O)O [Ixazomib (MLN2238)],-1.13
25,CNC[C@H](O)c1cccc(O)c1 [Phenylephrine HCl],-0.682
26,CCOc1ccn(-c2ccc(F)cc2)c(=O)c1C(=O)Nc1ccc(Oc2ccnc(N)c2Cl)c(F)c1,-1.06

# A run of entries of the results above, for reference:
row,SMILES,miR-132-3p level in NGN2-iNs
9,N#Cc1ccc2[nH]c(O)c(-c3ccc(CN4CCOCC4)cn3)c2c1,-0.239
10,COc1cc2ncnc(Nc3ccc(Cl)cc3F)c2cc1OC,-0.385
11,O=C(O)P(=O)(O)O [Foscarnet Sodium],-0.222
12,Cc1[nH]c(/C=C2\C(=O)Nc3ccccc32)c(C)c1CCC(=O)O [Orantinib (SU6668)],0.524

# Reformatted: results already given.
row	SMILES	miR-132-3p level in NGN2-iNs
15	COc1cc(C=O)ccc1O [Vanillin]	-0.919
16	CSc1cccc(Nc2ncc3cc(-c4c(Cl)cccc4Cl)c(=O)n(C)c3n2)c1	1.31
17	OCc1ccc(-c2ccc(-c3ccc(CO)s3)o2)s1	0.435

# Additional entries

row,SMILES,miR-132-3p level in NGN2-iNs
1,Cc1nc(Nc2n[nH]c3c2CN(C(=O)N[C@H](CN(C)C)c2ccccc2)C3(C)C)c2sccc2n1,0.545
2,NC(=O)c1noc([C@H](CCCC2CCCCC2)CC(=O)NO)n1,-0.835
3,Cc1cccc(-c2[nH]c(C(C)(C)C)nc2-c2ccc3nccnc3c2)n1,0.163
4,Cc1cnc(Nc2ccc(N3CCN(C)CC3)cc2)nc1Nc1cccc(S(=O)(=O)NC(C)(C)C)c1,-0.0745
5,O=C1NC(=O)/C(=C/c2ccc(-c3ccc(F)cc3O)o2)S1,-0.378
6,CC(C)CCN1c2nc(Nc3cc(F)c(O)c(F)c3)ncc2N(C)C(=O)C1C (configuration not stated),-0.683
7,C[C@]12C=CC(=O)C=C1CC[C@@H]1[C@@H]2[C@@H](O)C[C@@]2(C)[C@H]1CC[C@]2(O)C(=O)CO [Prednisolone],-0.159
8,O=c1ncn2nc(Sc3ccc(F)cc3F)ccc2c1-c1c(Cl)cccc1Cl,0.635
9,"O=c1[nH]cc(F)c(=O)[nH]1 [Fluorouracil (5-Fluoracil, 5-FU)]",0.000427
10,CS(=O)(=O)c1ccc([C@@H](O)[C@@H](CO)NC(=O)C(Cl)Cl)cc1 [Thiamphenicol],0.557
11,CC(=O)Oc1cc(C(F)(F)F)ccc1C(=O)O [Triflusal],-0.289
12,N=c1ccn2c(n1)O[C@H]1[C@H](O)[C@@H](CO)O[C@H]12 [Cyclocytidine HCl],0.991
13,CNC(=O)c1ccc2cc([C@@]3(O)CCn4cncc43)ccc2c1 [Orteronel],0.0484
14,C[C@@H](c1ncncc1F)[C@](O)(Cn1cncn1)c1ccc(F)cc1F [Voriconazole],0.574
15,Cc1c(NC(=O)c2ccc(C(C)(C)C)cc2)cccc1-c1cn(C)c(=O)c(Nc2ccc(C(=O)N3CCOCC3)cc2)n1,-1.43
16,O=C(O)Cc1ccccc1Nc1c(Cl)cccc1Cl [Diclofenac Potassium],1.15
17,O=C(O)Cc1ccccc1Nc1c(Cl)cccc1Cl [Diclofenac Diethylamine],-1.08
18,O=C(O)Cc1ccccc1Nc1c(Cl)cccc1Cl [Diclofenac Sodium],0.104
19,COc1cc(N2CCN(C)CC2)ccc1Nc1nccc(-c2cn(C)c3cnccc23)n1,-0.419
20,CC(C)NC[C@H](O)COc1ccc(CCOCC2CC2)cc1 [Levobetaxolol HCl],0.0538
21,COC(=O)C1=C(C)NC(C)=C(C(=O)OC)C1c1ccccc1[N+](=O)[O-] [Nifedipine],-1.19
22,COC(=O)N1CCN(Cc2cccc(NC(=O)Nc3ccc(C)nc3)c2F)CC1,0.369
23,Nc1ccc(O)c(C(=O)O)c1 [Mesalamine],-1.07
24,Nc1ccc(S(=O)(=O)Nc2ncccn2)cc1 [Sulfadiazine],-0.0709
25,CCCC(C)NC(=O)c1ccc(Cl)c(Cl)c1 (configuration not stated),-0.82
26,C#C[C@]1(OC(C)=O)CC[C@H]2[C@@H]3CCC4=C[C@@H](OC(C)=O)CC[C@@H]4[C@H]3CC[C@@]21C [Ethynodiol diacetate],-0.829

row,SMILES,miR-132-3p level in NGN2-iNs
1,CC(C)[C@H](C(=O)Nc1ccc(C(=O)NO)cc1)c1ccccc1,-0.635
2,C#C[C@]1(O)CC[C@H]2[C@@H]3CCC4=CC(=O)CC[C@@H]4[C@H]3CC[C@@]21C [Norethindrone],0.779
3,C=CCc1cc(OC)c(O)c(C(=O)NCCO)c1 [Alibendol],-0.662
4,CCc1ccc(CCOc2ccc(CC3SC(=O)NC3=O)cc2)nc1 (configuration not stated) [Pioglitazone],-0.0945
5,CCc1ccc(CCOc2ccc(CC3SC(=O)NC3=O)cc2)nc1 (configuration not stated) [Pioglitazone HCl],-1.05
6,CNC[C@@H](O)c1ccc(O)c(O)c1 [L-Adrenaline],0.87
7,Cc1ccc(N(CC2=NCCN2)c2cccc(O)c2)cc1 [Phentolamine Mesylate],1.92
8,Cc1c(Cl)cccc1Nc1ccccc1C(=O)O [Tolfenamic Acid],0.865
9,COc1cc(F)c(C(C)C)cc1-c1ccc(C(F)(F)F)cc1CN1C(=O)O[C@H](c2cc(C(F)(F)F)cc(C(F)(F)F)c2)[C@@H]1C [Anacetrapib (MK-0859)],0.0126
10,CO[C@H]1/C=C/O[C@@]2(C)Oc3c(C)c(O)c4c(O)c(c(/C=N/N5CCN(C)CC5)c(O)c4c3C2=O)NC(=O)/C(C)=C\C=C\[C@H](C)[C@H](O)[C@@H](C)[C@@H](O)[C@@H](C)[C@H](OC(C)=O)[C@@H]1C [Rifampin],-0.763
11,CC1=C(/C=C/C(C)=C/C=C/C(C)=C/C=C/C=C(C)/C=C/C=C(C)/C=C/C2=C(C)CCCC2(C)C)C(C)(C)CCC1 [Beta Carotene],0.72
12,CC[C@H]1OC(=O)[C@H](C)[C@@H](O[C@H]2C[C@@](C)(OC)[C@@H](O)[C@H](C)O2)[C@H](C)[C@@H](O[C@@H]2O[C@H](C)C[C@H](N(C)C)[C@H]2O)[C@](C)(O)C[C@@H](C)C(=O)[C@H](C)[C@@H](O)[C@]1(C)O [Erythromycin],-0.159
13,O=C(c1cc(Cc2n[nH]c(=O)c3ccccc23)ccc1F)N1CCN(C(=O)C2CC2)CC1,0.133
14,O=C(O)CCCc1c[nH]c2ccccc12 [3-Indolebutyric acid (IBA)],-0.514
15,O=C1c2ccccc2C(=O)C1c1ccccc1 [Phenindione],1.3
16,O=C(O)CCc1nc(-c2ccccc2)c(-c2ccccc2)o1 [Oxaprozin],0.666
17,c1ccc(CC2=NCCN2)cc1 [Tolazoline HCl],-0.664
18,CC(C)(Oc1ccc(CCNC(=O)c2ccc(Cl)cc2)cc1)C(=O)O [Bezafibrate],0.00261
19,CC(C)C[C@H](NC(=O)[C@H](Cc1ccccc1)NC(=O)c1cnccn1)B(O)O [Bortezomib (PS-341)],-0.125
20,COc1ccc(CC(C)NCC(O)c2ccc(O)c(NC=O)c2)cc1 (configuration not stated) [Formoterol Hemifumarate],-1.02
21,O=C1C(c2c(O)[nH]c3ccccc23)=Nc2ccccc21 [Indirubin],-1.16
22,CS(=O)(=O)c1ccc(C(=O)Nc2ccc(Cl)c(-c3ccccn3)c2)c(Cl)c1 [Vismodegib (GDC-0449)],0.0607
23,CN1CCN(S(=O)(=O)c2ccc(-c3cnc(N)c(C(=O)Nc4cccnc4)n3)cc2)CC1,1.27
24,COc1ccc(-c2coc3cc(O)ccc3c2=O)cc1 [Formononetin],-0.632
25,CNc1nc(-c2ccc3c(N)n[nH]c3c2)cc(N2C[C@@H](C(=O)NC3CCCCC3)CC[C@H]2C)n1,1.8
